# Assay results taken from article PMC7862700.
# Amino acid sequences for entries named in this document (tags omitted). A change or cut given only in a name is not applied to a line headed by its entry.
# UniProt O43186: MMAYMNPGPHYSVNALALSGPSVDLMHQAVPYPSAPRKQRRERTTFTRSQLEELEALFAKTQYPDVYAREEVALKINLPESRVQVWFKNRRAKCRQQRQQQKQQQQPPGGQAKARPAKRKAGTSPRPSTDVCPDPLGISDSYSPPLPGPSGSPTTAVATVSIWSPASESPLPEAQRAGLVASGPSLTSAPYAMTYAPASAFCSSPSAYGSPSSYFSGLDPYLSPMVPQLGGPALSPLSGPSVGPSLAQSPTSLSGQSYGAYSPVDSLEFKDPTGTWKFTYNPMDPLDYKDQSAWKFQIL
# This is a selection; strong and weak results do not stand in their true shares. At the low end of the ranking, values are background and their order means little.
# How the values were obtained:
# Experiment in all cases: DAPPL (digital affinity profiling via proximity ligation, sequencing)
# Details in all cases: 10 mM Tris-HCl pH 7.5, 50 mM NaCl, 1 mM DTT, 4% glycerol, room temperature, 30 min; GST-TFs on glutathione beads, 16-mer random dsDNA library, 0.1% …; high values mean tight binding; double strand, one strand shown; scale: fold enrichment (6-mer frequency, TF over GST control)
# CRX = CRX (UniProt O43186)
# ELF5 = target: T1, ELF5 (UniProt Q9UKW6-2)
# T1 sequence: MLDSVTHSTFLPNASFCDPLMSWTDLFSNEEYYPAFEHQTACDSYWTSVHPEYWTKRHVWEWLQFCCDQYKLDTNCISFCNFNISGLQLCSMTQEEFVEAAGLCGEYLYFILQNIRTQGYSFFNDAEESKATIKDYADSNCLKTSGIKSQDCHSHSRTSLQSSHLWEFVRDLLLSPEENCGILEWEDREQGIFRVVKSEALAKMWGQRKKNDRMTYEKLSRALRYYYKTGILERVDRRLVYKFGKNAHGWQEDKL
# FEV = target: T2, FEV (UniProt Q99581)
# T2 sequence: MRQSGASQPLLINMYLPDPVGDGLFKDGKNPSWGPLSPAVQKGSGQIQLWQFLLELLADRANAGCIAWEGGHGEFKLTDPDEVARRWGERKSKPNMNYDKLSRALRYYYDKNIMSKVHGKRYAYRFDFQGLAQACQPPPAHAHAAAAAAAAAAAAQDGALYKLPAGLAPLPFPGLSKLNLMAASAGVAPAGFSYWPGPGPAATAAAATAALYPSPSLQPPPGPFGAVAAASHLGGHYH
Sequence,binding signal (CRX),binding signal (ELF5),binding signal (FEV)
GCCGCC,0.73,1.01,–
CCCCAC,0.98,1.19,–
CTCCAC,1.17,1.35,–
GTAATC,3.14,1.18,–
CAATGT,0.827,0.965,–
TGCATG,0.866,1.01,–
CCGGTT,0.863,2.37,–
CCCTGC,0.994,1.2,–
AAGTTG,0.978,1.17,–
GCACCT,0.842,0.978,–
GGCTTA,3.34,0.999,–
CAATGG,0.794,0.964,–
CATTGC,0.818,0.98,–
ACAAAC,0.847,1.12,–
GGCGTT,0.801,0.921,–
TAGGAA,0.998,1.29,–
GCTGAC,0.883,1.05,–
ATAGTT,1.1,1.12,–
TAGGCA,1.08,0.928,–
TGGACT,1.06,1.22,–
TTCTAC,1.69,1.54,–
TATACG,1.39,1.35,–
GCCCCA,0.866,0.916,–
TCCACC,1.04,1.19,–

Sequence,binding signal (CRX),binding signal (ELF5),binding signal (FEV)
GCCCTC,0.964,1.1,–
GAAACG,0.733,1.29,–
GCTTGG,0.969,0.965,–
ATGTAG,0.907,1.04,–
CAAAGC,1.3,1.01,–
CGGCCT,0.932,0.977,–
CCGGCG,0.564,0.941,–
TTAATC,6.11,1.18,–
ACTGAA,1.04,1.11,–
CTGAGG,0.707,0.813,0.74
GAATGC,0.817,1.07,0.899
GCCATT,0.875,0.94,0.967
TCCGCG,0.978,1.55,1.2
TGCCCA,0.916,1.01,1.21
CAGCAC,0.757,0.869,0.953
GTTGGC,0.581,0.819,0.934
GCTGCG,0.856,1.04,1.1
GATAGT,0.769,0.788,0.812
AACTGT,0.786,0.944,0.917
AGCGAA,0.839,0.872,0.873
TACGGG,0.982,0.877,0.954
CTGGTC,0.901,1.17,1.11
CAGATC,1.13,0.879,0.902
CACAGC,0.793,0.957,1.03

# Part of the list above with just binding signal (ELF5) and binding signal (CRX):
Sequence,binding signal (ELF5),binding signal (CRX)
GCCCTC,1.1,0.964
GAAACG,1.29,0.733
GCTTGG,0.965,0.969

# Carrying on.

Sequence,binding signal (CRX),binding signal (ELF5),binding signal (FEV)
ACCGTT,0.81,0.97,0.93
CTGTGG,0.749,0.822,0.793
CAATGA,0.801,0.922,0.983
ATTCGG,0.989,0.854,0.901
TTCGTC,1.09,1.18,1.21
ATAGTG,0.894,0.893,0.889
GCAACA,0.689,0.992,0.993
TAGATA,1.48,0.971,0.945
TGGCGT,0.792,0.964,0.893
AGAAAC,0.956,0.953,0.896
CCCTAG,0.959,0.921,0.936
GTGGAA,0.838,0.96,0.91
CTCGGT,0.945,0.995,1.01
GACCGC,0.739,0.943,0.962
CAAGCC,0.946,0.849,0.943
CGGCAA,0.661,0.963,0.923
ATGGGA,0.894,0.873,0.87
GCATAC,0.713,0.923,0.977
CGCTTG,0.884,0.975,1.08
CCAAGA,0.943,0.916,0.919
CGCCCA,0.744,0.944,1.02
ATTTGT,1.58,1.26,1.34
TGGCGC,0.713,0.867,0.91
CCTTAA,2.17,1.44,1.33

Sequence,binding signal (CRX),binding signal (ELF5),binding signal (FEV)
AATGTG,0.841,0.967,0.991
GGCAAT,0.813,0.928,0.961
CCTGGC,0.803,0.971,0.956
GCCTGT,0.801,0.916,0.911
GAGAAT,0.913,0.718,0.672
GCGCGC,0.858,0.967,0.909
GCTTAA,3.04,0.983,0.947
GCCGAA,0.95,0.925,0.998
GCCAAC,0.664,0.93,0.946
GGATCA,1.53,0.782,0.775
GTAGCG,0.651,0.847,0.952
CAGTAT,0.906,0.874,0.925
AGTCTC,0.946,0.997,0.942
CCAAGC,0.959,0.937,0.978
ACAAGA,0.935,0.97,0.917
TGCAGA,0.882,0.952,0.953
GAGCTC,0.943,0.838,0.88
GCGCAC,0.695,0.846,0.953
TTCGCT,1.13,1.23,1.2
CAGATG,0.927,0.975,0.97
CTAGTG,0.769,0.812,0.879
TGTCAG,0.734,0.828,0.813
AGATGT,0.91,0.955,0.852
AAGGTC,0.824,0.901,0.893

Sequence,binding signal (CRX),binding signal (ELF5),binding signal (FEV)
CATAGA,0.901,0.863,0.843
CGCACC,0.63,0.924,0.951
AGAAGG,0.77,0.771,0.633
TCCAAG,1.2,1.07,1.03
ATTGTG,0.921,0.861,0.873
TCGTTG,0.752,0.928,0.925
CTGGGG,0.695,0.801,0.833
CCACGT,0.778,0.903,0.952
TCATAG,0.918,0.84,0.837
CTAGAC,1,0.907,0.96
GCAATA,0.92,0.949,0.989
CGTAGC,0.843,1.05,0.978
TCAGTT,0.932,0.937,0.959
TAGTCA,0.958,0.86,0.795
GCTCTC,1.24,1.2,1.47
CCCGAA,1.61,1.32,1.37
AAGAAG,1.21,1.12,0.979
AGAATG,1.09,0.979,0.907
GACATG,0.683,0.96,0.892
GCTAGG,0.854,0.906,0.904
CATTCA,0.874,1.02,1.01
CAAGCT,1.1,0.875,0.923
TCGAGC,1.01,0.877,0.946
CCATGG,0.851,0.928,0.931
